Results deposited as PubChem BioAssay AID1259297 (Sanger Institute, 2017).

- Assay: 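siRNA screen across the kinome seeking drug partners in cells of colorectal cancer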 (primary screen)
- Cells: human RCM1 colorectal cancer cell line
- Reagents: siRNA pool against human genes
- Treatment: separate arms: DMSO vehicle, or one anchor drug at a mild dose: BYL719 1 µM, cetuximab 5 µg/ml, trametinib 10 nM
- Read-out: 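Viability per well relative to a non-targeting pool, mean of replicates; robust z-score for knock-down alone; synergy score with BYL719, cetuximab or trametinib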
- Direction: viability z-score, knock-down alone: higher = more viable cells than non-targeting controls; viability, knock-down alone (DMSO): higher = more viable cells; synergy score with trametinib: higher = stronger combined killing with trametinib; synergy score with BYL719: higher = stronger combined killing with BYL719
- Call rule: 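Essential when the viability robust z-score for knock-down alone is below -3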
- Meaning of the calls: active = essential when knocked down alone; inactive = no clear loss of viability alone
This is an unselected part of 794 reagents tested. 13 of them (1.6%) were called active. 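Calls reflect knock-down without drug only; drug synergy is judged separately, with scores above 0.15 counted as synergy.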 Entries without a mark were called inactive. Viability is capped at 1. Not all columns of the deposit are shown. Not stated in the record: the amount of reagent, the time to read-out.

target gene,"viability z-score, knock-down alone","viability, knock-down alone (DMSO) (fraction of control)",synergy score with trametinib,synergy score with BYL719
CLK3 (GeneID 1198),0.9,1,0.0457,0.0823
NEK3 (GeneID 4752),-0.331,0.886,0.0722,-0.12
MINK1 (GeneID 50488),-0.994,0.824,-0.00193,-0.0462
CDK14 (GeneID 5218),-0.716,0.85,-0.0828,-0.209
CDK7 (GeneID 1022),0.9,1,-0.0554,-0.0682
MAP3K12 (GeneID 7786),0.0373,0.92,0.04,-0.0293
FLT3 (GeneID 2322),0.422,0.956,-0.132,-0.104
LRRK2 (GeneID 120892),0.632,0.975,0.048,0.0156
TESK1 (GeneID 7016),0.9,1,0.106,-0.0728
TRIB1 (GeneID 10221),0.9,1,0.0643,-0.0257
NPR2 (GeneID 4882),0.088,0.925,0.0955,-0.0787
EPHB3 (GeneID 2049),-2.95,0.643,0.0671,-0.0027
HK2 (GeneID 3099),-2.11,0.721,-0.0683,0.0641
DGKH (GeneID 160851),0.0352,0.92,0.0116,-0.00925
ABL2 (GeneID 27),0.9,1,0.00781,-0.0728
EFNA3 (GeneID 1944),0.9,1,-0.034,-0.000229
TNNI3K (GeneID 51086),-0.241,0.894,-0.043,-0.148
PRKCZ (GeneID 5590),-2.07,0.725,-0.0932,-0.0381
NADK (GeneID 65220),0.349,0.949,-0.00698,-0.12
GCK (GeneID 2645),-3.24 (active),0.616,0.0231,0.00436

Individual results from the list.
Result for MAP3K12 (GeneID 7786) in “synergy score with trametinib”: 0.04
LRRK2 (GeneID 120892), synergy score with BYL719: 0.0156
